Data published in patent US20070276027A1, “Crystalline Forms of [R-(R* ,R*)]-2-(4-Fluorophenyl)-Beta, -Dihydroxy-5-(1-Methylethyl)-3-Phenyl-4-[(Phenylamino)Carbonyl]-1H-Pyrrole-1-Heptanoic Acid” (Warner-Lambert Company LLC, priority 2003, published 2007).

Conditions: solvents including water and phosphate buffered saline solution; compared with Form I atorvastatin calcium (U.S. Pat. No. 5,969,156)

## CC(C)c1c(C(=O)Nc2ccccc2)c(-c2ccccc2)c(-c2ccc(F)cc2)n1CC[C@@H](O)C[C@@H](O)CC(=O)O (relative stereo) [Form A, [R—(R*,R*)]-2-(4-Fluorophenyl)-β,δ-dihydroxy-5-(1-methylethyl)-3-phenyl-4-[(phenylamino)carbonyl]-1H-pyrrole-1-heptanoic acid]
  solubility: comparable to Form I atorvastatin calcium
